Record: PubChem BioAssay AID504804 (Drosophila RNAi Screening Center, 2011)
Assay: 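Knock-downs shielding fly cells from apoptosis caused by DNA damage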 (primary screen). Cells: Drosophila Kc cells. Reagents: long dsRNA against Drosophila genes, 0.5 µg dsRNA per well. Duration: 96 h (48 h knock-down, then 48 h drug). Treatment: doxorubicin 5 µg/ml for 48 h, added 48 h after dsRNA. Measured: 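Viability measured as cellular ATP by luminescence after 48 h knock-down then 48 h doxorubicin at 5 µg/ml; unnormalised plate counts for each replicate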. Direction: raw ATP luminescence: higher = more viable cells, protection from doxorubicin. Hit rule: 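Active when both duplicate wells lie at least 2 SD above the plate mean and protection is confirmed by rescreening and independent dsRNAs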.
The deposit covers about 19,000 reagents; below is an unselected part of those that have a named target and a result. Of all reagents, 47 (0.25%) got an active call. 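Signals are raw, not normalised; exact z-scores behind calls not deposited; actives needed confirmation, so some wells reaching 2 SD are inactive.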 Entries without a mark were called inactive. A plus sign joins genes that one reagent is predicted to hit. No sequences are given here.

Target gene | dsRNA | SD above plate mean | raw ATP luminescence, replicate 1 | raw ATP luminescence, replicate 2
tal-1A + tal-2A + tal-AA + 1 more | DRSC12992 | – | 2.06e5 | 1.92e5
CG17855 | DRSC02638 | – | 43800 | 64440
CG7320 | DRSC10810 | – | 36007 | 35060
CG4098 | DRSC10399 | – | 54843 | 39393
mRpL36 | DRSC10337 | – | 50803 | 52493
DppIII | DRSC16241 | – | 56787 | 64250
Cyp4ad1 | DRSC07369 | – | 88500 | 71450
ems | DRSC16941 | – | 73730 | 59560
PolD3 | DRSC01961 | – | 96157 | 69420
Atg4a | DRSC00656 | – | 1.21e5 | 70363
CG5895 | DRSC10554 | – | 69347 | 53987
CG8635 | DRSC07226 | – | 56983 | 61340
CG10646 | DRSC09764 | – | 1.39e5 | 1.34e5
DnaJ-1 | DRSC11145 | – | 40007 | 37923
CG17782 | DRSC15267 | – | 70380 | 76090
Slmap | DRSC03799 | – | 62870 | 51083
Sqor | DRSC08453 | – | 43850 | 41170
vih | DRSC09778 | – | 58057 | 57707
CG13376 | DRSC17901 | – | 50270 | 40630
MED16 | DRSC04506 | – | 64107 | 33890
Mal-A6 | DRSC07233 | – | 25797 | 68730
CG30466 | DRSC05556 | – | 1.31e5 | 1.15e5
CG34001 | DRSC09042 | – | 1.82e5 | 2.08e5
Sema5c | DRSC11279 | – | 95533 | 73483
wkd | DRSC15777 | – | 61010 | 46013
betaTry | DRSC07582 | – | 2.36e5 | 1.69e5
Noc2 | DRSC03165 | – | 72677 | 64193
VhaAC45 | DRSC07058 | at least 2 SD above plate mean (active) | 95030 | 86277
Ir48a | DRSC05301 | – | 71313 | 1.03e5
tau | DRSC14569 | – | 26420 | 29490
CG42233 | DRSC14328 | – | 59500 | 56480
CG42233 | DRSC15416 | – | 45790 | 71690
Ste:CG33238 + Ste:CG33241 + Ste:CG33236 + 11 more | DRSC19004 | – | 2.62e5 | 2.46e5
Ste:CG33238 + Ste:CG33241 + Ste:CG33236 + 11 more | DRSC21260 | – | 2.90e5 | 2.98e5
CG32373 | DRSC08895 | – | 1.93e5 | 1.58e5
Ass + CG31286 | DRSC12493 | – | 64790 | 74147
CG17359 | DRSC10265 | – | 62610 | 47120
CG31345 | DRSC14193 | – | 40957 | 51787
CG31345 | DRSC14847 | – | 39400 | 48223
CG17440 | DRSC18126 | – | 3.54e5 | 1.29e5
Obp93a | DRSC15220 | – | 46600 | 62810
CG34251 | DRSC09498 | – | 80863 | 70937
CG34251 | DRSC09500 | – | 75590 | 75597
CG17597 | DRSC02630 | – | 76687 | 80557
Mpc1 | DRSC14770 | – | 78217 | 53677
Pgls | DRSC19769 | – | 3.49e5 | 3.68e5
CG5676 | DRSC02875 | – | 49443 | 71170
CG8379 | DRSC16414 | – | 52820 | 62800
hay | DRSC11354 | – | 32623 | 38573
Vps13 | DRSC06817 | – | 47457 | 83180
CG30010 | DRSC05193 | – | 93043 | 74500
mkg-p + Tpt | DRSC10777 | – | 46280 | 47673
Alg7 | DRSC02833 | – | 91103 | 52263
Alg7 | DRSC02834 | – | 60857 | 62700
Pbgs | DRSC09718 | – | 80603 | 66317
CG5731 | DRSC02883 | – | 42193 | 71610
CG14096 | DRSC10099 | – | 72837 | 75477

Entries above whose target name starts with D or d:
Target gene | dsRNA | SD above plate mean | raw ATP luminescence, replicate 1 | raw ATP luminescence, replicate 2
DppIII | DRSC16241 | – | 56787 | 64250
DnaJ-1 | DRSC11145 | – | 40007 | 37923
